# Source: PubChem BioAssay AID1347076 (National Center for Advancing Translational Sciences (NCATS), 2019)
# In all, about 400,000 compounds went through this assay and about 13,000 (3.2%) were called active. Inconclusive means that the source gave no clear call. Such entries were picked first, then a sample of the others. Calls come from the whole dose curve; as a rule, active = well fitted cell-killing curve with a large enough effect; inconclusive = small, poorly fitted or top-dose-only effect, or effect the other way; inactive = flat fitted curve, though single readings scatter. Potencies of inconclusive entries are doubtful fits and often do not repeat.
# Experiment: qHTS assay for MDR1-selective chemotherapeutics: Primary screen using the drug-selected MDR subline cells KB-V1; note: nearly all actives have a fitted effect of over 60% in size
# Settings: KB-V1 MDR cells viability, CellTiter-Glo, 72 h; activity change, negative = cytotoxicity: at 46.1 µM (top of the series)
# Outline: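 Cells of the MDR subline KB-V1 are plated, dosed with compound at multiple concentrations, and incubated 72 h at 37 degrees C; CellTiter-Glo is then added and luminescence read after 10 min.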
# % is set by controls: 0 for no effect and ±100 for the full control effect; potency is the fitted concentration of half-maximal effect.
SMILES,Potency,"activity change, negative = cytotoxicity"
Cc1cccc(NC(=O)CN2CCN(C(=O)c3cccc(-n4cnnn4)c3)CC2)c1C,inactive,–
O=[N+]([O-])c1cccc(-c2ccc(C(=S)N3CCN(c4ccccc4)CC3)o2)c1,inactive,–
CC1(c2nc3ccccc3[nH]2)c2ccccc2C(=O)N1C1CC1 (configuration not stated),"inconclusive: 6.51 µM [rising, partial curve]",–
COc1ccc(NC(=O)CSC2CCCCC2)cc1,inactive,–
CC1CC(=O)Nc2ccccc2N1C(=O)CSc1nnnn1C (configuration not stated),–,inconclusive: 6.62%
CC(C)Cn1c2c(c(O)c(C(=O)Nc3ccc(F)cc3)c1=O)CCCC2,"inconclusive: 18.4 µM [cytotoxic, single point]",–
O=C(Nc1ccccc1Cl)c1cc(S(=O)(=O)N2CCCCC2)ccc1N1CCOCC1,"inconclusive: 14.6 µM [cytotoxic, partial curve, poor fit]",–
O=C(c1ccc(-c2nc3ccccc3s2)o1)N1CCN(c2ccccc2O)CC1,"inconclusive: 10.3 µM [cytotoxic, partial curve, poor fit]",–
O=C(CSc1nnc(CNC(=O)c2ccco2)o1)Nc1ccc(F)cc1,"inconclusive: 29.1 µM [rising, partial curve, poor fit]",–
Cc1ccc(N2CC(C(=O)Nc3nc4ccc(S(C)(=O)=O)cc4s3)CC2=O)cc1 (configuration not stated),active: 6.51 µM,–
O=C(Cc1cccs1)N1CCCC(c2nc3c(nnn3Cc3ccccc3Cl)c(=O)[nH]2)C1 (configuration not stated),"inconclusive: 35.5 µM [cytotoxic, single point]",–
COc1cccc(C(=O)NCC2(c3ccccc3)CCCC2)c1,"inconclusive: 23.1 µM [cytotoxic, single point]",–
C[C@H]1CN([C@@H](C)CO)C(=O)c2cc(NC(=O)C3CCCCC3)ccc2O[C@H]1CN(C)Cc1ccc(-c2ccccc2)cc1,inactive,–
CCc1ccc2c(COC(=O)C3CSC4(C)CCC(=O)N34)cc(=O)oc2c1 (configuration not stated),"inconclusive: 16.4 µM [rising, single point]",–
CCn1cc2nc(SCc3cccc(C(F)(F)F)c3)n(Cc3ccc(Cl)cc3)c(=O)c2n1,"inconclusive: 25.9 µM [cytotoxic, partial curve, poor fit]",–
COc1ccc(OC)c(N(CC(=O)N2CCN(c3cc(Cl)ccc3C)CC2)S(C)(=O)=O)c1,active: 23.1 µM,–
Cc1[nH]c2ccccc2c1C(=O)C(=O)NCCOc1ccccc1,"inconclusive: 18.4 µM [cytotoxic, partial curve, poor fit]",–
COc1ccc(S(=O)(=O)N2CCOCC2)cc1C(=O)NCC(c1ccccc1)c1ccccc1,"inconclusive: 20.6 µM [cytotoxic, single point]",–
COc1ccc(Cl)cc1NC(=O)NCCn1c(=O)oc2ccc(C)cc21,inactive,–
CCOc1ccc2[nH]c(=O)c(CN(CCc3ccccc3)C(=O)N3CCOCC3)cc2c1,active: 14.6 µM,–
C=CCSc1cc(C)nc2c(-c3ccccc3)c(C)nn12,active: 7.31 µM,–
CC(CNC(=O)c1ccc(OC2CCN(Cc3ccccn3)CC2)cc1)Oc1cccnc1 (configuration not stated),"inconclusive: 29.1 µM [cytotoxic, single point]",–
O=C(Nc1ccc(Cl)cc1)Nc1nnc(Cc2ccc([N+](=O)[O-])cc2)s1,"inconclusive: 29.1 µM [rising, single point]",–

SMILES,Potency,"activity change, negative = cytotoxicity"
O=C(c1ccc(NS(=O)(=O)c2ccc(F)cc2)cc1)N1CCN(c2ccccc2O)CC1,"inconclusive: 10.3 µM [cytotoxic, partial curve, poor fit]",–
CC1(C(=O)Nc2ccc3c(c2)OCCO3)CN(S(C)(=O)=O)CC(=O)N1Cc1cccc(F)c1 (configuration not stated),inactive,–
Cc1c(C(=O)NCc2ccc(F)cc2)sc(=O)n1Cc1ccccc1F,"inconclusive: 20.6 µM [cytotoxic, single point]",–
O=C(COc1ccc(-c2ccccc2)cc1)N1CCCC1,inactive,–
Cc1cccc(NC(=O)c2ccccc2O)c1C,active: 16.4 µM,–
O=C(O)CC(c1cccc(O)c1)N1Cc2ccccc2C1=O (configuration not stated),inactive,–
Cc1ccc(C(=O)CCCn2nnc(-c3cccnc3)n2)cc1C,"inconclusive: 20.6 µM [cytotoxic, partial curve]",–
COc1ccc(-c2cn3nc(N4CCC(C(=O)Nc5ccccc5OC)CC4)sc3n2)cc1,inactive,–
CCN(CC)C(=O)c1sc2c(c1C)c(=O)n(-c1ccccc1)c(=O)n2Cc1c(C)cc(C)cc1C,inactive,–
CCOC(=O)[C@@H]1[C@H]2COc3ccccc3[C@@H]2N2C(=O)N(c3cccc(Cl)c3)C(=O)[C@@]12C,"inconclusive: 29.1 µM [cytotoxic, single point]",–
COCCCn1c(-c2cccc(Cl)c2)nc2c1c(=O)[nH]c(=O)n2Cc1ccccc1,"inconclusive: 2.91 µM [cytotoxic, full curve]",–
CCOC(=O)[C@]12CCCC=C1N(CCC1=CCCCC1)C(=O)[C@H](CC(=O)N1CCCCC1)C2,"inconclusive: 14.6 µM [cytotoxic, partial curve]",–
CCCC(=O)N1N=C(c2ccccc2)CC1c1cn(C)c2ccccc12 (configuration not stated),"inconclusive: 18.4 µM [cytotoxic, partial curve, poor fit]",–
COc1cc(C(=O)N/N=C/c2ccc3c(c2)c2ccccc2n3C)ccc1O,"inconclusive: 29.1 µM [cytotoxic, single point]",–
Nc1[nH]n2c(=O)cc(-c3ccccc3)nc2c1N=Nc1ccccc1,"inconclusive: 7.31 µM [cytotoxic, partial curve, poor fit]",–
Cc1ccccc1NC(=O)COc1ccc2c(c1)OC(C)(C)CC2=O,"inconclusive: 8.2 µM [cytotoxic, partial curve]",–
CCOC(=O)c1cc(-c2ccccc2)nc2nc(N3CCCCC3)sc12,inactive,–
COc1cccc(C2=CC(c3ccccc3F)n3ncc(C(=O)Nc4ccc(C)cc4)c3N2)c1 (configuration not stated),"inconclusive: 16.4 µM [cytotoxic, single point]",–
CCOc1cc2[nH]c(=S)n(CCCN3CCCC3=O)c(=O)c2cc1OCC,"inconclusive: 16.4 µM [cytotoxic, partial curve]",–
Cc1cc(C)n(Cc2cc(C(=O)O)c3ccccc3n2)n1,inactive,–
CCOC(=O)C1(Cc2cccc(Cl)c2)CCCN(C2CCN(C(C)=O)CC2)C1 (configuration not stated),"inconclusive: 18.4 µM [cytotoxic, partial curve, poor fit]",–
OCc1nnn(-c2cccc(C(F)(F)F)c2)c1CO,"inconclusive: 18.4 µM [rising, single point]",–
COc1ccc(/C=N/N2CCN(Cc3ccc(C)cc3)CC2)cc1Br,inactive,–

SMILES,Potency,"activity change, negative = cytotoxicity"
Cc1ccc(-n2cc(CNCCCn3ccnc3C)c(-c3ccc(F)cc3)n2)cc1,active: 20.6 µM,–
Cc1ccc(C)c(NC(=S)NCCSc2ccc(Cl)cc2)c1,"inconclusive: 20.6 µM [cytotoxic, single point]",–
CCOc1ccc(OCC(=O)OCC(=O)NNC(=O)c2ccc([N+](=O)[O-])cc2)cc1,inactive,–
COCC1CCN(C(=O)c2ccc3nc(Cc4cccc(Cl)c4)oc3c2)CC1,"inconclusive: 20.6 µM [cytotoxic, single point]",–
COC(=O)c1ccccc1NC(=S)N(Cc1ccc2c(c1)OCO2)Cc1cc2cc(OC)ccc2[nH]c1=O,active: 18.4 µM,–
CCN(c1ccc(NC(=O)c2ccc(N3CCCC3=O)cc2)cc1)C(C)C,"inconclusive: 4.11 µM [cytotoxic, partial curve, poor fit]",–
CC1CCc2nc3ccc(S(=O)(=O)N4CCC(C(=O)N5CCCCC5)CC4)cc3c(C(=O)O)c2C1 (configuration not stated),"inconclusive: 14.6 µM [rising, single point]",–
COc1ccc(-c2nc(CS(=O)CC(=O)NCCc3ccccc3)c(C)o2)cc1OC (configuration not stated),inactive,–
COc1ccccc1/C=c1/[nH]c(=O)/c(=C\c2ccccc2OC)[nH]c1=O,"inconclusive: 29.1 µM [cytotoxic, single point]",–
CC1=C(C(=O)OCc2ccccc2)N2C(=O)[C@@H](NC(=O)OCc3ccccc3)[C@H]2SC1,"inconclusive: 20.6 µM [cytotoxic, single point]",–
Cc1c(C(=O)OCC(=O)Nc2cccc(S(N)(=O)=O)c2)oc2c1ccc1ccccc12,"inconclusive: 23.1 µM [cytotoxic, single point]",–
Cc1noc(C)c1CCC(=O)Nc1cc(C(=O)O)ccc1Cl,"inconclusive: 29.1 µM [rising, partial curve, poor fit]",–
CN(CC(=O)Nc1cccc(Cl)c1)S(=O)(=O)/C=C/c1ccccc1,inactive,–
CCOC(=O)c1cc2c(=O)n3ccccc3nc2n(CC(C)C)c1=NC(=O)COc1ccc(Cl)cc1,inactive,–
COc1ccc(C2=NN(C(C)=O)C(c3cn(-c4ccccc4)nc3-c3cccs3)C2)cc1 (configuration not stated),inactive,–
CC(C)(C)NC(=O)C(c1ccccc1)N(Cc1ccco1)C(=O)c1csnn1 (configuration not stated),inactive,–
O=C(O)c1cccc(S(=O)(=O)N2CCCC(c3nc4c(nnn4Cc4ccccc4Cl)c(=O)[nH]3)C2)c1 (configuration not stated),"inconclusive: 10.3 µM [rising, partial curve, poor fit]",–
CCOC(=O)C1=C(c2ccccc2)NC(SCC(=O)Nc2cccc(C)c2)=C(C#N)C1c1ccco1 (configuration not stated),active: 14.6 µM,–
O=C1CCC(C(=O)N2CCCCCC2)CN1Cc1cccc(C(F)(F)F)c1 (configuration not stated),inactive,–
O=C(NCc1ccco1)C(c1cccs1)N(C(=O)Cc1cccs1)c1ccccc1 (configuration not stated),"inconclusive: 8.2 µM [cytotoxic, partial curve]",–
COc1ccc(Oc2cnn(-c3ccccc3)c(=O)c2Br)cc1,"inconclusive: 23.1 µM [cytotoxic, single point]",–

# Molecules listed so far that contain a furan ring, fused or not, in the order listed:
SMILES,Potency,"activity change, negative = cytotoxicity"
O=[N+]([O-])c1cccc(-c2ccc(C(=S)N3CCN(c4ccccc4)CC3)o2)c1,inactive,–
O=C(c1ccc(-c2nc3ccccc3s2)o1)N1CCN(c2ccccc2O)CC1,"inconclusive: 10.3 µM [cytotoxic, partial curve, poor fit]",–
O=C(CSc1nnc(CNC(=O)c2ccco2)o1)Nc1ccc(F)cc1,"inconclusive: 29.1 µM [rising, partial curve, poor fit]",–
Cc1c(C(=O)OCC(=O)Nc2cccc(S(N)(=O)=O)c2)oc2c1ccc1ccccc12,"inconclusive: 23.1 µM [cytotoxic, single point]",–
CC(C)(C)NC(=O)C(c1ccccc1)N(Cc1ccco1)C(=O)c1csnn1 (configuration not stated),inactive,–
CCOC(=O)C1=C(c2ccccc2)NC(SCC(=O)Nc2cccc(C)c2)=C(C#N)C1c1ccco1 (configuration not stated),active: 14.6 µM,–
O=C(NCc1ccco1)C(c1cccs1)N(C(=O)Cc1cccs1)c1ccccc1 (configuration not stated),"inconclusive: 8.2 µM [cytotoxic, partial curve]",–

# Single records, as listed above. Values in the order: Potency	activity change, negative = cytotoxicity
# COC(=O)c1ccccc1NC(=S)N(Cc1ccc2c(c1)OCO2)Cc1cc2cc(OC)ccc2[nH]c1=O as listed: active: 18.4 µM	–
# COc1ccc(C2=NN(C(C)=O)C(c3cn(-c4ccccc4)nc3-c3cccs3)C2)cc1 (configuration not stated) as listed: inactive	–
